This note sets out measurements from PMC6710278.

Amino acid sequences for entries named in this document (tags omitted).
UniProt Q61188: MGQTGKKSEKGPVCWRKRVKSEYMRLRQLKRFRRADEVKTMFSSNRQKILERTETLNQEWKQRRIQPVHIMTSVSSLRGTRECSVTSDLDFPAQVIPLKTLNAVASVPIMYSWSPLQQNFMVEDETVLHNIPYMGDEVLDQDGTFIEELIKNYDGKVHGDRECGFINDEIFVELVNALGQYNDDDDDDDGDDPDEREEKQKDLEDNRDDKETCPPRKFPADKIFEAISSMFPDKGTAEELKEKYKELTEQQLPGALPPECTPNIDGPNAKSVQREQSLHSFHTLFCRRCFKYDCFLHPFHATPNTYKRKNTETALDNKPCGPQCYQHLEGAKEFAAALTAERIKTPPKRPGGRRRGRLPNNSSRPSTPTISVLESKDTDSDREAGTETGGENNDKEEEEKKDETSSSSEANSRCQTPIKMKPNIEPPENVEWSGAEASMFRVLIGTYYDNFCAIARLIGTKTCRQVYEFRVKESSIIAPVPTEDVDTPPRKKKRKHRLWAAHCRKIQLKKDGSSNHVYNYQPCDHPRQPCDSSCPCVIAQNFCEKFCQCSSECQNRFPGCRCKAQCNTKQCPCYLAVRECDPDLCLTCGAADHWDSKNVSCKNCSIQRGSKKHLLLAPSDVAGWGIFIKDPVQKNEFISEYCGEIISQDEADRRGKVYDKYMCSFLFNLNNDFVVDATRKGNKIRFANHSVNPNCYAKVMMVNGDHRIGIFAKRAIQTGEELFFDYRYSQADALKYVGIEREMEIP
UniProt P70351: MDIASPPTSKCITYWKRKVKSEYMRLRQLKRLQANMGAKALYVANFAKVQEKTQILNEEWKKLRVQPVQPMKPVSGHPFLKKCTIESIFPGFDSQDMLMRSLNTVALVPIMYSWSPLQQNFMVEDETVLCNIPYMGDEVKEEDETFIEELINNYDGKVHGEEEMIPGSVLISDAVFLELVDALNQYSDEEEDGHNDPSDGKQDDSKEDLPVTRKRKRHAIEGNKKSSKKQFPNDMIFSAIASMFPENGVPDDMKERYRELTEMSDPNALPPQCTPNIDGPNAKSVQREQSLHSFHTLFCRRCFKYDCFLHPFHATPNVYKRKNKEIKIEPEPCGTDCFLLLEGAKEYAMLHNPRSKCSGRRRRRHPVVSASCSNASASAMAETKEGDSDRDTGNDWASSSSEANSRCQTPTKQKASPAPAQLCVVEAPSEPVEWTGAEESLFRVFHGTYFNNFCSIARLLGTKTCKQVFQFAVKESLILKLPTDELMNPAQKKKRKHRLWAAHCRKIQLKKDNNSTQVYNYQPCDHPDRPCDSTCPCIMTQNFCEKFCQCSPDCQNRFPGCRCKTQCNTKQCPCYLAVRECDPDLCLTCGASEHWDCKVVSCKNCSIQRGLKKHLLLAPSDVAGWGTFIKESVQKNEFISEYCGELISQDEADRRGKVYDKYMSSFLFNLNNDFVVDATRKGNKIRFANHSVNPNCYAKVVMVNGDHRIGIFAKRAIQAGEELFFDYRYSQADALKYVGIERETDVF
UniProt Q02395: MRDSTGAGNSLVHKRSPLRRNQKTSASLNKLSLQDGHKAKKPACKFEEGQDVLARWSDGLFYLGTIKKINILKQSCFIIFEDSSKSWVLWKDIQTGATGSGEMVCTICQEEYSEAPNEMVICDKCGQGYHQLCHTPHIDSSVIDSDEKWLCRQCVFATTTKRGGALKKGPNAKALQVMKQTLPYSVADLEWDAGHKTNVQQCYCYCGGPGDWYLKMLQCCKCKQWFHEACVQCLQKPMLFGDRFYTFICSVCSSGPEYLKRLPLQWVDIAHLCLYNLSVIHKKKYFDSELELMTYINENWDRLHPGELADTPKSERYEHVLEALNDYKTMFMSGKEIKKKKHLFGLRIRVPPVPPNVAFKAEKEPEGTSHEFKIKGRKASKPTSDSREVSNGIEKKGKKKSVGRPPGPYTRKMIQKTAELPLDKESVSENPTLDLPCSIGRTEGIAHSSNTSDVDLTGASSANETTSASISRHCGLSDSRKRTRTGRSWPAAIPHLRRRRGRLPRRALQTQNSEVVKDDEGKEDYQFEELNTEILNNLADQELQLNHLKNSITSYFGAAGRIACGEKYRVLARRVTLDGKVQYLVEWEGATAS
UniProt Q93009: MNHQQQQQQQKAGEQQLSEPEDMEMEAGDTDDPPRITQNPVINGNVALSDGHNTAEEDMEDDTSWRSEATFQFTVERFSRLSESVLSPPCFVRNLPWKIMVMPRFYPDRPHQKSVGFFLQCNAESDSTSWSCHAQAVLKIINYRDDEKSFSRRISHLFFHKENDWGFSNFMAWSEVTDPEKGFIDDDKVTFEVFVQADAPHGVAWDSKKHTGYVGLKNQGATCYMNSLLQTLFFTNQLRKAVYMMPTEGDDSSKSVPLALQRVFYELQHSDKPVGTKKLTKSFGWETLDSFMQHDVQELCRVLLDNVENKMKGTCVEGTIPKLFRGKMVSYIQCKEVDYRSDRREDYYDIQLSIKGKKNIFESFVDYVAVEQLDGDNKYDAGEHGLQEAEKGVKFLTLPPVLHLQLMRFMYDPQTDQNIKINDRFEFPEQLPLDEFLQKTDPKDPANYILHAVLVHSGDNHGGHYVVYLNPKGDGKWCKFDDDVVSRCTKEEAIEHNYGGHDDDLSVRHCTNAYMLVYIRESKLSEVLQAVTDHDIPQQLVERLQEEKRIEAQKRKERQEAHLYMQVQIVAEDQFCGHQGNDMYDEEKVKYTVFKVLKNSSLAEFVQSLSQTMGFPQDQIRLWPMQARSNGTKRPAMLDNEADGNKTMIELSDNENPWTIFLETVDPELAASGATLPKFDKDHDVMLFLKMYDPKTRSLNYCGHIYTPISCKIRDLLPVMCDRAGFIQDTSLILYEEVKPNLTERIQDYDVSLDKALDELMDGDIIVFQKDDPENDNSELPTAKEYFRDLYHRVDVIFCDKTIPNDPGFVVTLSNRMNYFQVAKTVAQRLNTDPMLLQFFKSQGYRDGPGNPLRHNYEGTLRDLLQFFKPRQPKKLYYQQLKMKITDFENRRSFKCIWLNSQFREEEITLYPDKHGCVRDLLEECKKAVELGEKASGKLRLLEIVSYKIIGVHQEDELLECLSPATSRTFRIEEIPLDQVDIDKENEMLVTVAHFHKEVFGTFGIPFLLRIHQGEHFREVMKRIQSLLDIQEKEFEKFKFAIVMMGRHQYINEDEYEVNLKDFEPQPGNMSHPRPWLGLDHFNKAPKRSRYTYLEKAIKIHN
UniProt Q9Z1B8: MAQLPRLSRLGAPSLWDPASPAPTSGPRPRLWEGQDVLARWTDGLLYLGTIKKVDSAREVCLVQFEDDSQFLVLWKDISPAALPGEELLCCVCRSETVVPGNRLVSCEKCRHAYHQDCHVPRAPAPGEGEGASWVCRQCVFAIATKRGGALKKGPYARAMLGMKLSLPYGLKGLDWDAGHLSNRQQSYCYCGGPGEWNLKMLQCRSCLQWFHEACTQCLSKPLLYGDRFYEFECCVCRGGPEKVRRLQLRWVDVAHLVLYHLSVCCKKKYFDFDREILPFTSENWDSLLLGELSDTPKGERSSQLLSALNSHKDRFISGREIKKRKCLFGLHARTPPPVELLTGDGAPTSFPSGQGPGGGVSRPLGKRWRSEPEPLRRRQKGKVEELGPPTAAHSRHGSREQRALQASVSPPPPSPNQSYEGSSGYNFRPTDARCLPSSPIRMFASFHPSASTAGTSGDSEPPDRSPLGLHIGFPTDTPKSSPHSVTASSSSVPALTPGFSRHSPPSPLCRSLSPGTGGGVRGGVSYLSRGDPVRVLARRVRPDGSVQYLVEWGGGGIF

Experiment [1] concerns the target N-terminal Flag-tagged EZH2 expressed from the endogenous locus (knock-in mouse) (mouse) (UniProt Q61188). Nature of the experiment: affinity purification with mass spectrometry; single step Flag-IP (Flag M2 beads) from nuclear extract of adult mouse testes (EZH2-Flag or EZH1-Flag knock-in against WT control), three independent IPs, on-bead trypsin digestion, LC-MS/MS.

Experiment [2] addresses N-terminal Flag-tagged EZH1 expressed from the endogenous locus (knock-in mouse) (mouse) (UniProt P70351). The description is as above.
For experiment [3], the target named is T1, Flag-tagged human EZHIP overexpressed in HeLa-S3 cells (human) (UniProt Q86X51).
T1 sequence: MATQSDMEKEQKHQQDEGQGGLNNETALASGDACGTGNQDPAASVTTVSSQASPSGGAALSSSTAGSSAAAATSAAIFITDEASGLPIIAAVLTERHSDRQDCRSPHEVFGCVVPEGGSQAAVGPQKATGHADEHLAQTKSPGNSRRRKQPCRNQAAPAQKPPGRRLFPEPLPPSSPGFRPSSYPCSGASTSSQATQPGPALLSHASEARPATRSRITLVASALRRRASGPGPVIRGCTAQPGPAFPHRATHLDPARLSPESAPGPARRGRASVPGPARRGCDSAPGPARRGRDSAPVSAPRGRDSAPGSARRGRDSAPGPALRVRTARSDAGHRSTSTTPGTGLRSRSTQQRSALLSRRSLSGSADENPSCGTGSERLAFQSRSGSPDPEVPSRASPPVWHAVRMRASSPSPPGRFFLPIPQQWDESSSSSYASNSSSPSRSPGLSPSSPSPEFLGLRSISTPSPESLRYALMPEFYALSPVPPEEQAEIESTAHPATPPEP
Kind of experiment: affinity purification with mass spectrometry; single step Flag-IP from nuclear extract of HeLa-S3 cells overexpressing Flag-tagged mouse or human EZHIP against WT cells, n = 3, on-bead trypsin digestion, LC-MS/MS.

In experiment [4] the target is T2, Flag-tagged mouse EZHIP overexpressed in HeLa-S3 cells (mouse) (UniProt B1B0V2).
T2 sequence: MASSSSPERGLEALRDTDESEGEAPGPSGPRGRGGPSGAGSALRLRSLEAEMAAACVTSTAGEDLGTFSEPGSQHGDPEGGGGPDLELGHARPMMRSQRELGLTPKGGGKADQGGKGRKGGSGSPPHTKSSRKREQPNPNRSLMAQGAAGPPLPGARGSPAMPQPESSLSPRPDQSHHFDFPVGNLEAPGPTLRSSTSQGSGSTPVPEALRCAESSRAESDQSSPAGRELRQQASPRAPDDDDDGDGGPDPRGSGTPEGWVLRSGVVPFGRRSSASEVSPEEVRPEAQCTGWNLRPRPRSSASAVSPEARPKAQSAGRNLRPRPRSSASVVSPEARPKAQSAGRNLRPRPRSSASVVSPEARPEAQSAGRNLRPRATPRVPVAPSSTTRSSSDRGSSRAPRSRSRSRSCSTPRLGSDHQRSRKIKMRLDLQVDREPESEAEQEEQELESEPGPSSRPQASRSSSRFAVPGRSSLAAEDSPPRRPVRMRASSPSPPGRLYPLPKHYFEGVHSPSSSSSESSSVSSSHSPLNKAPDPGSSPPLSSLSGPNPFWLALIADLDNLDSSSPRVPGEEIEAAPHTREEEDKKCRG
Described as above.

These are yes or no findings as the source states them, for the method shown. In cells and extracts the contact can be indirect. These calls come from enrichment with a bait or labelling near it, and not all partners need be listed. For some of these results: Tags and fused reporters may be left off the sequences shown.

As for “MTF2 (mouse testis) (from UniProt Q02395 1-593)”, the binding entry in experiment [1] and in experiment [2] was “binds” in each case. With “USP7 (HeLa-S3) (from UniProt Q93009 1-1102)”, the binding entry in experiment [3] and in experiment [4] was “binds” each time. “PHF1 (mouse testis) (from UniProt Q9Z1B8 1-559)”: the binding result in experiment [1] and in experiment [2] was “binds” each time.

B1: EZHIP (EZH1/2 inhibitory protein), the uncharacterized protein AU022751 (mouse testis) (protein, UniProt B1B0V2-1 1-589)
chain: MASSSSPERGLEALRDTDESEGEAPGPSGPRGRGGPSGAGSALRLRSLEAEMAAACVTSTAGEDLGTFSEPGSQHGDPEGGGGPDLELGHARPMMRSQRELGLTPKGGGKADQGGKGRKGGSGSPPHTKSSRKREQPNPNRSLMAQGAAGPPLPGARGSPAMPQPESSLSPRPDQSHHFDFPVGNLEAPGPTLRSSTSQGSGSTPVPEALRCAESSRAESDQSSPAGRELRQQASPRAPDDDDDGDGGPDPRGSGTPEGWVLRSGVVPFGRRSSASEVSPEEVRPEAQCTGWNLRPRPRSSASAVSPEARPKAQSAGRNLRPRPRSSASVVSPEARPKAQSAGRNLRPRPRSSASVVSPEARPEAQSAGRNLRPRATPRVPVAPSSTTRSSSDRGSSRAPRSRSRSRSCSTPRLGSDHQRSRKIKMRLDLQVDREPESEAEQEEQELESEPGPSSRPQASRSSSRFAVPGRSSLAAEDSPPRRPVRMRASSPSPPGRLYPLPKHYFEGVHSPSSSSSESSSVSSSHSPLNKAPDPGSSPPLSSLSGPNPFWLALIADLDNLDSSSPRVPGEEIEAAPHTREEEDKKCRG
As to B1, the binding result in experiment [2] was “binds”.
